Experimental data as given in PMC8710002.
These are yes or no findings as the source states them, for the method shown. In cells and extracts the contact can be indirect. Some entries that bind do so weakly or less than the wild type.

Amino acid sequences for entries named in this document (tags omitted). A change or cut given only in a name is not applied to a line headed by its entry.
UniProt P47736: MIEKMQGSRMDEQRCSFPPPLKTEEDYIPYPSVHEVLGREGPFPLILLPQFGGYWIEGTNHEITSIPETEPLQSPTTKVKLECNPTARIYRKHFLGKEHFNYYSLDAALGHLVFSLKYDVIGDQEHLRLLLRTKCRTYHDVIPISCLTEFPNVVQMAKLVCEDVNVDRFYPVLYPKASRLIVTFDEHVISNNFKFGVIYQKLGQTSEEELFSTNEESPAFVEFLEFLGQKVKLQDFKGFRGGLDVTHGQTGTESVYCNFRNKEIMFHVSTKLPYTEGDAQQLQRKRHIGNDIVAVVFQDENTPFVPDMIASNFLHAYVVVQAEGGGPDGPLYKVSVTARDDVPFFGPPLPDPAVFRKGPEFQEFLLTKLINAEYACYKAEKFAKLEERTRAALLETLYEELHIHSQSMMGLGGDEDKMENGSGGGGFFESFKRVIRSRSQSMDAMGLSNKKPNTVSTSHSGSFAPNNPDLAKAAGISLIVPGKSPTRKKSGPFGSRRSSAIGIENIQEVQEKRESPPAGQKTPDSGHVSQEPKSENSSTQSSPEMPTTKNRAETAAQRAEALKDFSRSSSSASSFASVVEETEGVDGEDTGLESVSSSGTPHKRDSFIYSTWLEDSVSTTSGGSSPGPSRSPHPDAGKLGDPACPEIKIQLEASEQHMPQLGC
UniProt Q05086: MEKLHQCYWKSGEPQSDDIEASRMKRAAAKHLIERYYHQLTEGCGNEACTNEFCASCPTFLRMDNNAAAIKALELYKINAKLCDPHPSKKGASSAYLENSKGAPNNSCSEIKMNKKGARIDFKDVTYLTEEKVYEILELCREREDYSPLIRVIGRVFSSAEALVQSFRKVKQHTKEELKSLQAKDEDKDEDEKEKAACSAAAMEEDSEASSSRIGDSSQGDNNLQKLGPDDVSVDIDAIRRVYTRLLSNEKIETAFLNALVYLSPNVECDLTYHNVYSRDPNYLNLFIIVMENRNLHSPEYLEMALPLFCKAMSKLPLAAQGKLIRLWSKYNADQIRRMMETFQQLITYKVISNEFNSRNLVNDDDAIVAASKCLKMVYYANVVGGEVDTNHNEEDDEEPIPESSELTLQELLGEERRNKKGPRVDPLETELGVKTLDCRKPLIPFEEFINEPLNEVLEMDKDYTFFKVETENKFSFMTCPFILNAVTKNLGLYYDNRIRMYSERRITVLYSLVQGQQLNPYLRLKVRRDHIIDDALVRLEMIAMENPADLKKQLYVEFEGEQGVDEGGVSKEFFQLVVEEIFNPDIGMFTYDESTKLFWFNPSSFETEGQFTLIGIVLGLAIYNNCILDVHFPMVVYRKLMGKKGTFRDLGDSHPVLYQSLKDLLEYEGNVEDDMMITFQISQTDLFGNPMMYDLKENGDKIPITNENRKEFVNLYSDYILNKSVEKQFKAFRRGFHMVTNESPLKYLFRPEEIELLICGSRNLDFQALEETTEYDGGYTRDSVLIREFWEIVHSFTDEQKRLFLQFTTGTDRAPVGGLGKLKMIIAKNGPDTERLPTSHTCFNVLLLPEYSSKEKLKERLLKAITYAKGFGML

Experiments:
[1] = molecular target: Ras-related regulatory protein 1 GTPase-activating protein (Rap1GAP) (human (endogenous in HeLa, SiHa and C33A)) (UniProt P47736); experiment: co-IP; total cell lysates (RIPA) of HPV-positive HeLa and SiHa cells; anti-Rap1GAP antibody at 4 °C overnight, protein A + G agarose beads at room temperature for 3 h, three washes with PBS; immunoblot with anti-E6AP antibody
[2] = molecular target: Ras-related regulatory protein 1 GTPase-activating protein (Rap1GAP) (human (endogenous in HeLa, SiHa and C33A)) (UniProt P47736); experiment: co-IP; total cell lysate (RIPA) of HPV-negative C33A cells; anti-Rap1GAP antibody at 4 °C overnight, protein A + G agarose beads at room temperature for 3 h, three washes with PBS; immunoblot with anti-E6AP antibody

binding [1]: binds
Substance: E6-associated protein (E6AP) (from UniProt Q05086 1-875) (enzyme)
binding [2]: no binding (condition: in HPV-negative C33A cells)
